Laboratory results taken from paper doi:10.1101/2021.12.29.474403.

Chains of the proteins cited; added tags and fusions are not shown. Lines headed by an entry give the natural chain unless they say otherwise; changes in a name come on top.
UniProt O65665: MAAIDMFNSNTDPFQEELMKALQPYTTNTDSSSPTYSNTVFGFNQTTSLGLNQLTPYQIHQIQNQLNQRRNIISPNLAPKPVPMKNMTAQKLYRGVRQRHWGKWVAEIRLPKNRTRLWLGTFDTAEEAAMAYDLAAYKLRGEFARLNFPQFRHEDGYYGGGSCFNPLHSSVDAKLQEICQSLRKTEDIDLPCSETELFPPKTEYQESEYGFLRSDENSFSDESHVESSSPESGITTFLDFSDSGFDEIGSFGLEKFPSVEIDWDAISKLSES

Target: AtERF60 (GST fusion) (Arabidopsis thaliana) (UniProt O65665)
Assay: EMSA

Sequence | binding result
AGAACATCAGATACATCTGACATCCT (double strand) [ABRE-1 (M) / ABRE-2 (M) (same printed sequence)] | no binding
AGAACCGACAGATACCGACTGGCCGCCCT (double strand) [DRE-2] | binds
AGAACCTACAGATACCTACTGACCTACCT (double strand) [DRE-2 (M)] | no binding
AGAACGTCAGATACGTCTGACGTCCT (double strand) [ABRE-1] | no binding
AGAACGTGAGATACGTGTGACGTGCT (double strand) [ABRE-2] | no binding
AGAAGCCACCAGATAGCCACCTGAGCCACCCT (double strand) [GCC (M)] | no binding
AGAAGCCGCCAGATAGCCGCCTGAGCCGCCCT (double strand) | binds
AGAGCCGACAGATGCCGACTGGCCGACCT (double strand) [DRE-1] | binds
AGAGCCTACAGATGCCTACTGGCCTACCT (double strand) [DRE-1 (M)] | no binding

The exact form of at least one protein or probe is not confirmed. A negative result means that nothing was seen under these conditions. At least one verdict rests on a figure or table, not on a statement of the authors.
